The target in one assay is T1, HA-CXCR1-RLuc (human) (UniProt P25024).
T1 sequence: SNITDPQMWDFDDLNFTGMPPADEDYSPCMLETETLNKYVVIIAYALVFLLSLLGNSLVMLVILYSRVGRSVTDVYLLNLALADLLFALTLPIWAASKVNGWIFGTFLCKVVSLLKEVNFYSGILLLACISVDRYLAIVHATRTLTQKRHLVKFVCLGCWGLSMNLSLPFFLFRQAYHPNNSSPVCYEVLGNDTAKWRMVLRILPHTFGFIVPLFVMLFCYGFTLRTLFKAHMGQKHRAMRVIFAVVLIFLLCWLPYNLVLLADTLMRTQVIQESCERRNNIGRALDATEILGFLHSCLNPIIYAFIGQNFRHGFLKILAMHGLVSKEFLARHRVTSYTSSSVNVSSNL
The assay is described as follows: FRET or BRET; BRET1 in living HEK-293T cells co-transfected with HA-CXCR1-RLuc or HA-CXCR2-RLuc (donor) and β-arrestin 1-EYFP or β-arrestin 2-EYFP (acceptor); 5 μM coelenterazine H; cells stimulated with 100 nM CXCL8(1-77), [Cit5]CXCL8(1-77) or CXCL8(6-77) (kinetic measurements, RT) or with graded concentrations (dose-response, 15 min at 37 °C); ligand-induced BRET ratio (value of PBS-treated cells subtracted).

Sequences of proteins named here, by UniProt entry; tags and fusion partners are left off. Residues count along the entry.
UniProt P25025, residues 2-360: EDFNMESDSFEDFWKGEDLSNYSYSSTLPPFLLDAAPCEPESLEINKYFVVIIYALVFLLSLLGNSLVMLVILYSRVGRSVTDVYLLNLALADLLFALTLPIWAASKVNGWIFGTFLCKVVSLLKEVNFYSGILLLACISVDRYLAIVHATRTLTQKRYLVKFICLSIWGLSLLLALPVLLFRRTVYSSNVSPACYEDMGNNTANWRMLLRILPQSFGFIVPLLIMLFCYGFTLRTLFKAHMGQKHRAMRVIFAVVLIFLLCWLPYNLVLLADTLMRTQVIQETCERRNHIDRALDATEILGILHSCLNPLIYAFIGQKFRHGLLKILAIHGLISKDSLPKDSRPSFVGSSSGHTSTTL
UniProt P17870: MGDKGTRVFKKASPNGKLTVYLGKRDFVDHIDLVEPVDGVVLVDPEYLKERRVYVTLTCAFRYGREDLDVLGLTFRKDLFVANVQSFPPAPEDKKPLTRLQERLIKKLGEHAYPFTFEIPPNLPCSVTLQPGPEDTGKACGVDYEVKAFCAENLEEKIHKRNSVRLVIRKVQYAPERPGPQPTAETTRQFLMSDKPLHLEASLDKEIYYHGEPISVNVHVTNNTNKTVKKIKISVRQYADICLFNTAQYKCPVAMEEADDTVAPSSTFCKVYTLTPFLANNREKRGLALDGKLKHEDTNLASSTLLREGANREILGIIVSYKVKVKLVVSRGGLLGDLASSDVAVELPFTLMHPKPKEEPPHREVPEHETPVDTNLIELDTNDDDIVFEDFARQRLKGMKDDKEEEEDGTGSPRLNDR
UniProt P32120: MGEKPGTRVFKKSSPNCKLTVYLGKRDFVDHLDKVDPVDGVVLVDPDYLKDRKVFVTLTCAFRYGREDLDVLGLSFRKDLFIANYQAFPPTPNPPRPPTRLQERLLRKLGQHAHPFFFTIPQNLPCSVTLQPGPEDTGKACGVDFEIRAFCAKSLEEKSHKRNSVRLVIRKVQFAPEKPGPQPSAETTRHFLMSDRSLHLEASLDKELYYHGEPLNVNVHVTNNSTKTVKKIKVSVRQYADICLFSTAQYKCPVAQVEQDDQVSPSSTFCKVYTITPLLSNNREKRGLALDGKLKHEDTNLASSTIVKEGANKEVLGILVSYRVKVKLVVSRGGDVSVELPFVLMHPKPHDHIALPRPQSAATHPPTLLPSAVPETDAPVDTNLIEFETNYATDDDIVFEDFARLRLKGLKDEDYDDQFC

A further assay addresses HA-CXCR2-RLuc (human) (UniProt P25025). The assay is described as above.

In publication PMC6321254 one finds binding data, which are given here for 2 substances.

No constants are given. Whether binding was seen depends on the method and setting. In cells and extracts the contact can be indirect. Some entries that bind do so weakly or less than the wild type. For some of these results: Sequences can lack the tags named with a protein.

For “β-arrestin 1-EYFP (from UniProt P17870 1-418)”, the binding entry with HA-CXCR1-RLuc (human) and in the assay with HA-CXCR2-RLuc (human) was “binds” throughout.

Turning to “β-arrestin 2-EYFP (from UniProt P32120 1-420)”, the binding result with HA-CXCR1-RLuc (human) and in the assay with HA-CXCR2-RLuc (human) was “binds” throughout.
